Laboratory results: PubChem BioAssay AID1671195 (Yale University, 2021)
Assay: 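Knockdowns that increase or decrease uptake of fluorescent LDL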 (primary screen). System: human Huh7 hepatoma cells. Knock-down reagent: siRNA pool against human genes, 18 nM. Duration: about 2 to 2.5 days of knockdown, then 8 h LDL uptake. Challenge: DiI-labelled LDL at 30 µg/ml for 8 h, in lipoprotein-deficient serum medium. Measurement: 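Fluorescent LDL signal imaged in cells, scaled to the plate median, robust z-score for each replicate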. Direction: robust z-score: higher = more LDL uptake after knockdown. Hit rule: 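a gene counts as active if at least two replicate z-scores exceed ±2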.
The whole screen tested about 22,000 reagents; below is a part drawn at random. About 1,510 of all reagents (6.9%) count as active. 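Active includes knockdowns raising or lowering LDL uptake; positive z-scores mean more uptake, negative mean less.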 A number with no mark means an inactive call.

no.	gene knocked down	robust z-score, replicate 1	robust z-score, replicate 2	robust z-score, replicate 3
1	PPIAP78 (GeneID 202227)	-1.24	-1.16	-0.751
2	DIP2C-AS1 (GeneID 414235)	0.498	0.418	0.195
3	GDF9 (GeneID 2661)	-0.12	0.358	0.21
4	DNAJB2 (GeneID 3300)	-0.027	0.477	0.186
5	MYOG (GeneID 4656)	-1.06	-0.98	-0.519
6	SDR42E1 (GeneID 93517)	1.09	-0.216	0.809
7	PCDHGA10 (GeneID 56106)	-0.365	-0.0128	-0.104
8	TTC9C (GeneID 283237)	-1.09	-1.23	-1.12
9	MTOR (GeneID 2475)	0.27	-0.225	-0.181
10	SULT1A3 (GeneID 6818)	-0.446	-0.712	-0.782
11	GRIK2 (GeneID 2898)	-0.723	-0.477	-0.931
12	SMAD7 (GeneID 4092)	-1.31	-1.01	-1.25
13	OR6M1 (GeneID 390261)	-1.3	-1.29	-1.45
14	RNF39 (GeneID 80352)	0.0897	-0.609	0.0843
15	MIR9-1HG (GeneID 10485)	1.02	1.74	1.23
16	REXO1L1P (GeneID 254958)	-0.489	-0.898	-0.542
17	SLC22A14 (GeneID 9389)	-0.168	0.0593	0.13
18	ZNF200 (GeneID 7752)	-0.173	-0.153	-0.0813
19	TFIP11 (GeneID 24144)	1.4	1.24	1.46
20	CHCHD7 (GeneID 79145)	-2.44 (active)	-2.38	-2.3
21	MS4A2 (GeneID 2206)	1.95	0.994	1.12
22	HTRA1 (GeneID 5654)	2.06 (active)	1.92	2.58
23	ZNF428 (GeneID 126299)	0.292	-0.396	-0.622
24	PRG4 (GeneID 10216)	1.73	-0.101	0.753
25	BRCC3 (GeneID 79184)	0.00327	-0.128	-0.65
26	DDR2 (GeneID 4921)	-0.531	0.911	0.474
27	TAF1A (GeneID 9015)	4.12 (active)	1.19	1.96
28	TCEAL7 (GeneID 56849)	1.22	0.784	1.19
29	C1QTNF4 (GeneID 114900)	1.36	0.333	0.764
30	TTC3P1 (GeneID 286495)	-0.735	-0.634	-0.755
31	ANGPT4 (GeneID 51378)	0.257	-0.241	-0.0264
32	MIF4GD (GeneID 57409)	-0.339	-0.514	-0.297
33	ZNF821 (GeneID 55565)	1.55	1.89	0.754
34	C1orf226 (GeneID 400793)	-0.489	-0.269	-0.583
35	ZNF446 (GeneID 55663)	-0.349	-0.278	-0.227
36	CTDSPL (GeneID 10217)	-1.39	-1.52	-1.62
37	SHD (GeneID 56961)	0.483	-0.229	0.181
38	USP51 (GeneID 158880)	-0.522	-0.88	-0.56
39	LINC02909 (GeneID 196415)	-0.528	-0.697	0.427
40	CD300LD (GeneID 100131439)	-1.7	-1.82	-1.49
41	TFPI (GeneID 7035)	-2.4 (active)	-1.66	-2
42	HRAS (GeneID 3265)	-1.69	-1.43	-1.65
43	PARVA (GeneID 55742)	0.0185	-0.424	-1.05
44	NAXD (GeneID 55739)	-0.106	-0.000426	-1.42
45	ELMOD1 (GeneID 55531)	-1.59	-0.7	-1.5
46	SERPINA12 (GeneID 145264)	-0.0935	-0.776	-0.0484
47	CSRNP2 (GeneID 81566)	0.436	0.741	1.58
48	PODN (GeneID 127435)	1.16	0.789	0.00622
49	PDCD6IP (GeneID 10015)	0.908	-0.53	-0.0822
50	VAT1L (GeneID 57687)	0.124	-0.147	-0.52
51	LRRC74B (GeneID 400891)	2.86 (active)	3.35	2.39
52	LOC286478 (retired record) (GeneID 286478)	3.12 (active)	2.88	3.55
53	MYLIP (GeneID 29116)	-0.298	1.66	-0.335
54	PPARGC1B (GeneID 133522)	0.154	-0.118	0.237
55	SH3TC1 (GeneID 54436)	0.349	0.139	1.49
56	SGMS2 (GeneID 166929)	-0.6	-0.544	0.0201
57	SLAMF1 (GeneID 6504)	-0.66	-0.67	-0.311
58	MFSD8 (GeneID 256471)	0.592	0.777	0.47
59	F7 (GeneID 2155)	0.196	-0.0702	-0.265
60	VHL (GeneID 7428)	-0.927	-1.94	-1.42
61	HDAC4 (GeneID 9759)	0.784	0.269	2.58
62	ZNF626 (GeneID 199777)	1.37	1.87	1.29
63	DBNL (GeneID 28988)	1.3	-0.321	0.0876
64	RPS17 (GeneID 6218)	-1.18	0.0387	-0.264
65	FBXO10 (GeneID 26267)	1.42	1.51	2.64
66	FAM168B (GeneID 130074)	-0.694	-1.78	-1.68
67	STAG3 (GeneID 10734)	0.969	-0.642	1.87
68	OR11A1 (GeneID 26531)	-0.38	-0.661	0.312

Records listed above marked active (6):
gene knocked down	robust z-score, replicate 1	robust z-score, replicate 2	robust z-score, replicate 3
CHCHD7 (GeneID 79145)	-2.44 (active)	-2.38	-2.3
HTRA1 (GeneID 5654)	2.06 (active)	1.92	2.58
TAF1A (GeneID 9015)	4.12 (active)	1.19	1.96
TFPI (GeneID 7035)	-2.4 (active)	-1.66	-2
LRRC74B (GeneID 400891)	2.86 (active)	3.35	2.39
LOC286478 (retired record) (GeneID 286478)	3.12 (active)	2.88	3.55
